For 6 molecules, binding results are on record in PMC6363614.

Sequences of proteins named here, by UniProt entry; tags and fusion partners are left off. Residues count along the entry.
UniProt P11021, residues 19-654: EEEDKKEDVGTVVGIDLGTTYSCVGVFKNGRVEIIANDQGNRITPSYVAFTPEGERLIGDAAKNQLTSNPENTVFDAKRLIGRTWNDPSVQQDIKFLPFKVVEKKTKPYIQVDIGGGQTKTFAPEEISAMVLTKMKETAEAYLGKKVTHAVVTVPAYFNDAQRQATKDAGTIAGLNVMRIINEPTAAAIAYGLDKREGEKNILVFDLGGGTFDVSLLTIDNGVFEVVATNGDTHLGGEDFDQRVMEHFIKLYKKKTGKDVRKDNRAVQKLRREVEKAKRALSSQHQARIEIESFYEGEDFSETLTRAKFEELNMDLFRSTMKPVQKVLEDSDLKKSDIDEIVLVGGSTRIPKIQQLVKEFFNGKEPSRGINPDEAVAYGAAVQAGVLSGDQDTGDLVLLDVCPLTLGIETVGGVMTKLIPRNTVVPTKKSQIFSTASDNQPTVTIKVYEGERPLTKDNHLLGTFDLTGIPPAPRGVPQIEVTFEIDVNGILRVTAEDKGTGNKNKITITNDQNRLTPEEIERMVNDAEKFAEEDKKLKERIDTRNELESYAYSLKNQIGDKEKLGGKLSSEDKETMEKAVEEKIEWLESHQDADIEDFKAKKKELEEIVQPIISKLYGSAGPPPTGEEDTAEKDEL
UniProt P14618: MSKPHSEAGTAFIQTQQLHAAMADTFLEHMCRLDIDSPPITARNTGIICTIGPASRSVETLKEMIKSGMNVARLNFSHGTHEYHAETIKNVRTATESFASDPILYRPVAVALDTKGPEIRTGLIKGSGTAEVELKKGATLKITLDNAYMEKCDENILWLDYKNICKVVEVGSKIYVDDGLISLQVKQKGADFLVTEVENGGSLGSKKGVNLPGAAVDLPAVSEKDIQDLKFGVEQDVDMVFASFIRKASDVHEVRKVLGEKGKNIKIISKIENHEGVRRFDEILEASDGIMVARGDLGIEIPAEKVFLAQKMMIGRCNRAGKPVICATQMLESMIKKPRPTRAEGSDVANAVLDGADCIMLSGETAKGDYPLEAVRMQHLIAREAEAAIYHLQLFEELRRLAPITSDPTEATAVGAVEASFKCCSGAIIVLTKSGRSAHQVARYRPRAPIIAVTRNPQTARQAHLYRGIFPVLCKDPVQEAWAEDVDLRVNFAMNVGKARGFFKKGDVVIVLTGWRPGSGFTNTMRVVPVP

T1: FLAG-tagged recombinant wild-type MANF (mesencephalic astrocyte-derived neurotrophic factor) (UniProt P55145)
T1 sequence: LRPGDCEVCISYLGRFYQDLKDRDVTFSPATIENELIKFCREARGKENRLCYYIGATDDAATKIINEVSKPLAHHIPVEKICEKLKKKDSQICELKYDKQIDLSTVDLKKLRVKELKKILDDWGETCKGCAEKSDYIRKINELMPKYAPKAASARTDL

B1: PRDX4 (protein, UniProt Q13162 38-271)
chain: WETEERPRTREEECHFYAGGQVYPGEASRVSVADHSLHLSKAKISKPAPYWEGTAVIDGEFKELKLTDYRGKYLVFFFYPLDFTFVCPTEIIAFGDRLEEFRSINTEVVACSVDSQFTHLAWINTPRRQGGLGPIRIPLLSDLTHQISKDYGVYLEDSGHTLRGLFIIDDKGILRQITLNDLPVGRSVDETLRLVQAFQYTDKHGEVCPAGWKPGSETIIPDPAGKLKYFDKLN
B2: PDIA6 (protein, UniProt Q15084-1 20-440)
chain: LYSSSDDVIELTPSNFNREVIQSDSLWLVEFYAPWCGHCQRLTPEWKKAATALKDVVKVGAVDADKHHSLGGQYGVQGFPTIKIFGSNKNRPEDYQGGRTGEAIVDAALSALRQLVKDRLGGRSGGYSSGKQGRSDSSSKKDVIELTDDSFDKNVLDSEDVWMVEFYAPWCGHCKNLEPEWAAAASEVKEQTKGKVKLAAVDATVNQVLASRYGIRGFPTIKIFQKGESPVDYDGGRTRSDIVSRALDLFSDNAPPPELLEIINEDIAKRTCEEHQLCVVAVLPHILDTGAAGRNSYLEVLLKLADKYKKKMWGWLWTEAGAQSELETALGIGGFGYPAMAAINARKMKFALLKGSFSEQGINEFLRELSFGRGSTAPVGGGAFPTIVEREPWDGRDGELPVEDDIDLSDVELDDLGKDEL

No constants are given. Whether binding was seen depends on the method and setting. Binding seen in cells or lysates may run through a third protein. A yes stands for co-enrichment or nearness to the bait. Other partners may have been found. Where a sequence is shown, tags or fusion partners need not be part of it.

This assay concerns the target T1, FLAG-tagged recombinant wild-type MANF (mesencephalic astrocyte-derived neurotrophic factor). Kind of assay: affinity purification with mass spectrometry; FLAG-tagged MANF overexpressed in HEK-293 cells; cells treated with 1 mM DSP cross-linker before lysis; lysate in 1x RIPA buffer (500 ug) incubated with antibody agarose beads overnight, washed three times in RIPA; eluate analysed by LC-MS/MS, spectral counting against 293 control, three biological replicates.
For CCT5 (from UniProt P48643-1 1-541), the binding result is given as “binds”.
As for “GRP78 (HSPA5) (from UniProt P11021 19-654)”, the binding entry is listed as “binds”.
PKM (from UniProt P14618 1-531): the binding result is given as “binds”.
Consider TUBA1B (from UniProt P68363-1 1-451), for which the binding entry is listed as “binds”.
For B1, the binding entry is recorded as “binds”.
As for B2, the binding result is “binds”.
